Measurements taken from the supplement of paper PMC6078165.

Tests used:
[1] = tested on: Hs578T; experiment: relative JC-1 red fluorescence (viability) vs pre-drug, monoculture (fraction); higher = more viable cancer cells; details: coculture fibroblast: none (monoculture)
Method: (§1)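 JC-1 labelled TNBC cells grown in monoculture (density kept equal with unlabelled cancer cells) in 384-well plates in FluoroBrite medium, treated with one of 42 anticancer drugs at 0.1, 1, 10 or 100 uM. JC-1 red fluorescence (mitochondrial integrity, surrogate of apoptotic death) was read by plate reader every 8 h for 72 h. Values are normalised to each well's pre-drug value, with background from alamethicin. The stock of one drug was tenfold lower, so its dose labels may be too high. Monoculture values are repeated alongside each fibroblast plate and are averaged here.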

[2] = tested on: HCC1143; experiment: as above; details: coculture fibroblast: none (monoculture)
Method: as §1

CC/C(=C(\c1ccccc1)c1ccc(OCCN(C)C)cc1)c1ccccc1 [Tamoxifen]
relative JC-1 red fluorescence
Details | 8 h | 16 h | 24 h | 32 h | 40 h | 48 h | 56 h | 64 h | 72 h
[1], 0.1 µM | 0.8393 | 0.741 | 0.6981 | 0.668 | 0.627 | 0.614 | 0.586 | 0.592 | 0.588
[1], 1 µM | 0.846 | 0.76 | 0.701 | 0.626 | 0.571 | 0.541 | 0.509 | 0.492 | 0.47
[1], 10 µM | 0.9272 | 0.945 | 0.882 | 0.932 | 0.947 | 0.879 | 0.967 | 0.946 | 0.945
[2], 0.1 µM | 0.8882 | 0.8064 | 0.7432 | 0.6863 | 0.6476 | 0.6225 | 0.5978 | 0.59 | 0.5782
[2], 1 µM | 0.8899 | 0.806 | 0.732 | 0.684 | 0.642 | 0.602 | 0.569 | 0.555 | 0.534
[2], 10 µM | 0.955 | 0.9223 | 0.875 | 0.8141 | 0.74888 | 0.6821 | 0.6442 | 0.598 | 0.561

CC[C@]1(O)C[C@H]2CN(CCc3c([nH]c4ccccc34)[C@@](C(=O)OC)(c3cc4c(cc3OC)N(C=O)[C@H]3[C@@](O)(C(=O)OC)[C@H](OC(C)=O)[C@]5(CC)C=CCN6CC[C@]43[C@@H]65)C2)C1 [Vincristine]
relative JC-1 red fluorescence
Details | 8 h | 16 h | 24 h | 32 h | 40 h | 48 h | 56 h | 64 h | 72 h
[1], 0.1 µM | 0.781 | 0.662 | 0.634 | 0.558 | 0.508 | 0.487 | 0.466 | 0.466 | 0.465
[1], 1 µM | 0.85 | 0.732 | 0.666 | 0.594 | 0.565 | 0.545 | 0.52 | 0.535 | 0.537
[1], 10 µM | 0.866 | 0.732 | 0.728 | 0.656 | 0.63 | 0.612 | 0.596 | 0.597 | 0.592
[1], 100 µM | 0.8863 | 0.8404 | 0.772 | 0.73 | 0.676 | 0.633 | 0.584 | 0.558 | 0.541
[2], 0.1 µM | 0.81783 | 0.755 | 0.693 | 0.6 | 0.552 | 0.546 | 0.519 | 0.519 | 0.51
[2], 1 µM | 0.88 | 0.796 | 0.736 | 0.6735 | 0.6291 | 0.602 | 0.576 | 0.552 | 0.543
[2], 10 µM | 0.9082 | 0.836 | 0.8 | 0.747 | 0.704 | 0.675 | 0.644 | 0.627 | 0.61
[2], 100 µM | 0.953 | 0.934 | 0.931 | 0.853 | 0.888 | 0.856 | 0.849 | 0.819 | 0.806

CCC1=C[C@@H]2CN(C1)Cc1c([nH]c3ccccc13)[C@@](C(=O)OC)(c1cc3c(cc1OC)N(C)[C@H]1[C@@](O)(C(=O)OC)[C@H](OC(C)=O)[C@]4(CC)C=CCN5CC[C@]31[C@@H]54)C2 [Vinorelbine]
relative JC-1 red fluorescence
Details | 8 h | 16 h | 24 h | 32 h | 40 h | 48 h | 56 h | 64 h | 72 h
[1], 0.1 µM | 0.825 | 0.704 | 0.606 | 0.541 | 0.5 | 0.482 | 0.454 | 0.445 | 0.44
[1], 1 µM | 0.812 | 0.6968 | 0.626 | 0.543 | 0.478 | 0.437 | 0.405 | 0.393 | 0.38
[1], 10 µM | 0.8489 | 0.7647 | 0.646 | 0.583 | 0.5042 | 0.482 | 0.424 | 0.373 | 0.334
[1], 100 µM | 0.393 | 0.212 | 0.166 | 0.0962 | 0.0666 | 0.0427 | 0.0206 | 0.0227 | 0.00336
[2], 0.1 µM | 0.8908 | 0.798 | 0.7128 | 0.6505 | 0.5962 | 0.555 | 0.526 | 0.5147 | 0.5
[2], 1 µM | 0.912 | 0.853 | 0.808 | 0.765 | 0.717 | 0.678 | 0.663 | 0.65 | 0.634
[2], 10 µM | 0.945 | 0.888 | 0.83 | 0.773 | 0.707 | 0.6594 | 0.6257 | 0.5985 | 0.574
[2], 100 µM | 0.6 | 0.423 | 0.315 | 0.259 | 0.221 | 0.194 | 0.169 | 0.147 | 0.126

The reference is the same well before dosing, and untreated signal decays as well.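 Cells used are triple-negative breast cancer lines, either basal-like or mesenchymal-like, grown in the absence of fibroblasts. Lower red signal means mitochondrial integrity is lost, a surrogate for apoptosis.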
